Inconclusive means that the source gave no clear call. Such entries were picked first, then a sample of the others. Where the call is inconclusive, the potency comes from a doubtful curve fit. Active and inactive are the calls of the source. The call rests on the fitted dose curve; in most records, active means well fitted inhibition curve with a large enough effect in the main read-out, with a control signal flat; inconclusive means small, poorly fitted or top-dose-only effect, or a change in a side signal; inactive means no such curve, though single readings can be large or run the other way.
Biological target: Caspase-7 (Homo sapiens) (UniProt P55210)
Experiment: Concentration-Response Counterscreen for Redox Active Inhibitors of Caspase-7: Catalase
Conditions: Caspase-7 Ac-DEVD-AFC fluorescence rate, catalase buffer; series mostly up to 57.5 µM; activity, negative = inhibition: at the top concentration
Description: NIH Molecular Libraries Screening Centers Network [MLSCN] NIH Chemical Genomics Center [NCGC] MLSCN Grant: 1 X01 MH078950-01 PI Name: Dr. James Wells, Dr. Enrique Perez-Paya, Dr.Janice Williams, Dr. Dennis Wolan, a person NCGC Assay Overview: The caspases (Cysteine Aspartyl Protease) comprise a related family of 14 dimeric proteases that are critical mediators of apoptosis (programmed cell death) and inflammation. The caspases represent an important class of drug targets for stroke, ischemia, cancer and inflammatory diseases. […] One goal of this project was to identify compounds that act as allosteric inhibitors via stabilizing the procaspase form of the enzyme. Previous work in Well's laboratory has shown that such allosteric inhibitors can be identified and these act by binding at the dimer interface of enzyme (Hardy, Lam et al., 2004). The biochemical assay was configured using purified caspase 7 at a high enzyme concentration to promote formation of the homodimers and thus facilitate the identification of allosteric inhibitors. The overall goal was to identify reversible inhibitors with better drug-like properties than the currently available set of aspartyl-containing peptidomimetics that covalently bind the active site. Caspase 7 was assayed using the profluorescent substrate Ac-DEVD-AFC. After initiation of the assay with substrate the plates were rapidly read using an automated robotic system (Kalypsys, Inc.) to maintain consistent timing. A kinetic mode of detection was used where the initial rate was collected (estimated final product formation was ~10%). Compounds were screened as a concentration-titration series that ranged from 57 uM to 0.7 nM. Below is the protocol used for caspase 7. Compounds that generate reactive oxygen species can lead to high hit rates in HTS biochemical assays. This mechanism was cited by Smith et al. (2002) as the main artifact responsible for >85% of the hits in an HTS against caspase 8. We identified a series of putative inhibitors in an enzymatic screen of caspase 7 and we performed two assays to test if these compounds operated by such a redox-active mechanism. Based on the published work, compounds that appear active due to a redox-active mechanism will show shifts in inhibition potency when the redox potential of the buffer is changed. Compounds that show a change in IC50 upon switching the buffer system from DTT to cysteine or DTT and the enzyme catalase are suspected to be redox active compounds.
NCGC Assay Protocol Summary: Caspase 7 was prepared in buffer (50 mM HEPES pH 7.5, 50 mM KCl, 200 mM NaCl, 50 units/well catalase (from bovine liver, Sigma cat#100), 0.1% CHAPS) at a concentration of 66.6 nM and 3 uL was dispensed to all wells using black solid Kalypsys 1536-well plates. 20 nL of DMSO containing compounds was added using a pin-tool (Kalypsys Inc.) to columns 5-48. Then 20 nL of DMSO solution from a control plate was added to columns 1-4. […] The plates were then exposed using 405 nm excitation/520 nm emission filters for 4 sec and read at 20 sec intervals for 3 min. […]

Amino acid sequences for entries named in this document (tags omitted). Residues count along the entry.
UniProt P55210, 24-198 limits assumed: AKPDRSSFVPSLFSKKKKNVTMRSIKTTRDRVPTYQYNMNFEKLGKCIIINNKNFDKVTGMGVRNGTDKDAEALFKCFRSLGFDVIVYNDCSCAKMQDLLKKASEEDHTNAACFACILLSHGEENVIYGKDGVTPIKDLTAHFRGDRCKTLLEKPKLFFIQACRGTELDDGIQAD
UniProt P55210, 207-303 limits assumed: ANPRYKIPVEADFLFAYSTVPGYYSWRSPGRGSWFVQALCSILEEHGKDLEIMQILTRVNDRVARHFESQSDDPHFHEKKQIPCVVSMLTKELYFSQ

| Structure (SMILES) | activity, negative = inhibition | Potency |
| --- | --- | --- |
| COc1cccc(Cn2cccc(NC(=O)NC3CCCCC3)c2=O)c1 | inactive: 4.7% |  |
| O=C(c1ccc(Cl)c(Cl)c1)N(Cc1ccco1)c1ccc(O)cc1 |  | active: 31.6 µM |
| CC(=O)Nc1cc(OC(C)=O)c2nonc2c1OC(C)=O | inactive: 1.17% |  |
| COc1ccc(Cn2c(=O)[nH]c3cc(C(=O)N4CCN(Cc5ccccc5)CC4)ccc3c2=O)cc1 |  | inconclusive: 15.8 µM [inhibitor, full curve] |
| O=c1cnnc(SCCc2ccccc2)[nH]1 | inactive: 1.99% |  |
